Four molecules from paper PMC11900807, “Accelerating Ligand Discovery for Insect Odorant Receptors” (International Journal of Biological Sciences, 2025) can be followed below.

Counter-ions that a name gives are not always drawn.

One data set deals with T1, SlitOR25.
T1 construct: gene OR25; full-length UAS-SlitOR25 transgene in Drosophila melanogaster ab3A olfactory neurons in place of OR22a (Or22ab-GAL4); complex with endogenous Drosophila Orco; with Odorant receptor coreceptor (Drosophila melanogaster, endogenous in ab3A neurons)
As to the kind of experiment: single-sensillum recording of Drosophila ab3A neurons, dose-response. Type of data set: cell-based, Spodoptera littoralis. To be noted: agonist; odorant puff, 500 ms; doses 1 ng to 100 µg; n = 7.

In another data set the test system is T2, SlitOR31.
T2 construct: gene OR31; full-length UAS-SlitOR31 transgene in Drosophila melanogaster ab3A olfactory neurons in place of OR22a (Or22ab-GAL4); complex with endogenous Drosophila Orco; with Odorant receptor coreceptor (Drosophila melanogaster, endogenous in ab3A neurons)
The description is as above. In kind it is cell-based, Spodoptera littoralis. To be noted: agonist; odorant puff, 500 ms; doses 1 ng to 100 µg; n = 7.

Take `O=C(O)CCc1ccc(O)c(O)c1` [compound 10, 3-(3,4-dihydroxyphenyl)propanoic acid]: the “lowest dose with significant activation” value with SlitOR25 was found to be 100 µg on filter paper.
For the molecule `O=COCc1ccccc1` [compound 16, benzyl formate], in the data set with SlitOR25, the “lowest dose with significant activation” value is on record as 10 µg on filter paper.
Turning to `CCCc1ccc(O)c(OC)c1` [compound 23, 2-methoxy-4-propylphenol], in the data set with SlitOR31, the “lowest dose with significant activation” value worked out at 10 µg on filter paper.
In the case of `C=CCc1ccc(O)c(OC)c1` [eugenol], in the data set on SlitOR31, the “lowest dose with significant activation” value was 1 µg on filter paper.
